Taken from: PubChem BioAssay AID1053208 (Peter MacCallum Cancer Centre, 2014)
Screen: 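Find knock-downs that sensitise mouse osteosarcoma cells to doxorubicin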 (primary screen). Cells: mouse osteosarcoma cells, early-passage culture from an engineered mouse model of fibroblastic bone tumour. Knock-down reagent: siRNA pool against mouse genes, 40 nM. Duration: about 120 h (48 h before drug, then 72 h with drug). Treatment: doxorubicin 100 nM for 72 h, roughly 30-40% inhibitory dose. Measured: 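Luminescent ATP signal taken as viability with or without 100 nM doxorubicin for 72 h; mean of two wells set against non-targeting siRNA and turned into robust z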. Scale: viability z-score with doxorubicin: higher = more viable cells under doxorubicin; viability z-score without drug: higher = more viable cells with knock-down alone. Call rule: 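Called active if knock-down leaves viability unchanged without drug (z within -2 to 2) but lowers it with doxorubicin (z at or under -2)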.
The whole screen tested about 17,000 reagents; this is a random part of them. 788 of all reagents (4.7%) count as active. 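Calls rest on z-score classes alone; an extra cut-off of viability at most 70% of control was not applied to them.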 Unmarked entries are inactive. The numbers tell different reagents against one gene apart. Not all columns of the deposit are shown.

Or4n4 — combined z-score class: high cell count without drug only; viability z-score with doxorubicin: 0.67; viability z-score without drug: 2.19
Fchsd2 — combined z-score class: no change with or without drug; viability z-score with doxorubicin: 0; viability z-score without drug: -0.84
Gabrg3 #1 — combined z-score class: no change with or without drug; viability z-score with doxorubicin: 0.67; viability z-score without drug: 0.51
Gabrg3 #2 — combined z-score class: no change with or without drug; viability z-score with doxorubicin: 0.34; viability z-score without drug: -0.17
Or4x15 — combined z-score class: no change with or without drug; viability z-score with doxorubicin: -1.12; viability z-score without drug: -1.35
H2ac25 — combined z-score class: no change with or without drug; viability z-score with doxorubicin: -0.67; viability z-score without drug: -0.51
Gpn2 — combined z-score class: no change with or without drug; viability z-score with doxorubicin: -0.9; viability z-score without drug: 1.18
Sec62 — combined z-score class: no change with or without drug; viability z-score with doxorubicin: -0.9; viability z-score without drug: -0.17
Cbx4 — combined z-score class: no change with or without drug; viability z-score with doxorubicin: -0.45; viability z-score without drug: -1.01
Cxcl10 — combined z-score class: no change with or without drug; viability z-score with doxorubicin: 0.45; viability z-score without drug: -1.18
Or2p2 — combined z-score class: no change with or without drug; viability z-score with doxorubicin: 0.67; viability z-score without drug: 0.17
Ccdc137 — combined z-score class: high cell count with doxorubicin only; viability z-score with doxorubicin: 2.02; viability z-score without drug: 0.84
